# The entries are a selection whose mix differs from that of the whole data set. For some of these results: At the low end of the ranking the order means little.
# The chains behind the UniProt entries cited, without tags or fusion partners. Where a name states a change or a piece, a line headed by the entry shows the natural chain unless it says otherwise.
# UniProt Q01892: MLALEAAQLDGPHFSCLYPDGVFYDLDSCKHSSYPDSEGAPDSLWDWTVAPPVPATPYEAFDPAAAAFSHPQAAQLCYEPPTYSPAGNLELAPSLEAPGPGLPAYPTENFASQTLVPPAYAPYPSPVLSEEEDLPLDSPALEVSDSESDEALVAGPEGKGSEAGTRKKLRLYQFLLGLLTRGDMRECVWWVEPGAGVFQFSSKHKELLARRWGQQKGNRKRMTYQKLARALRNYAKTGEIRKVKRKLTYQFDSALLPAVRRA
# Molecular target: SPIB (UniProt Q01892)
# Assay: DAPPL (digital affinity profiling via proximity ligation, sequencing)
# Conditions: 10 mM Tris-HCl pH 7.5, 50 mM NaCl, 1 mM DTT, 4% glycerol, room temperature, 30 min; GST-TFs on glutathione beads, 16-mer random dsDNA library, 0.1% …; high values mean tight binding; double strand, one strand shown; scale: fold enrichment (6-mer frequency, TF over GST control)
row,Sequence,binding signal
1,GATGGT,1.19
2,CGGCTA,1.21
3,TGCAAA,1.12
4,ATTTGG,1.32
5,ACAAGC,1.12

# Molecular target: T1, ETV2 (UniProt O00321)
# T1 sequence: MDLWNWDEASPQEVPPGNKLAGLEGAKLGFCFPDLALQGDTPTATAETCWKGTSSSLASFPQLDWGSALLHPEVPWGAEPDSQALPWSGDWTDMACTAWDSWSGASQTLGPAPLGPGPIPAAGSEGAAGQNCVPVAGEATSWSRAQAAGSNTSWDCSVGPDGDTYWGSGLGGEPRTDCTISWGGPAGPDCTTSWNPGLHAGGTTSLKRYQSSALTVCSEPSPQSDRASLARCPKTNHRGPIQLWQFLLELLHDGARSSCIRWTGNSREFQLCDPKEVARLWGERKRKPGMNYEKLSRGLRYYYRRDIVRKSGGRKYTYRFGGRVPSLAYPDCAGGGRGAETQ
# Assay: as above
# Conditions: 10 mM Tris-HCl pH 7.5, 50 mM NaCl, 1 mM DTT, 4% glycerol, room temperature, 30 min; GST-TFs on glutathione beads, 16-mer random dsDNA library, 0.1% …; high values mean tight binding; double strand, one strand shown; scale: fold enrichment (6-mer frequency, TF over GST control)
row,Sequence,binding signal
1,GATGGT,1.37
2,CGGCTA,0.966
3,TGCAAA,1.08
4,ATTTGG,1.37
5,ACAAGC,1.06

# Molecular target: T2, ETV3L (UniProt Q6ZN32)
# T2 sequence: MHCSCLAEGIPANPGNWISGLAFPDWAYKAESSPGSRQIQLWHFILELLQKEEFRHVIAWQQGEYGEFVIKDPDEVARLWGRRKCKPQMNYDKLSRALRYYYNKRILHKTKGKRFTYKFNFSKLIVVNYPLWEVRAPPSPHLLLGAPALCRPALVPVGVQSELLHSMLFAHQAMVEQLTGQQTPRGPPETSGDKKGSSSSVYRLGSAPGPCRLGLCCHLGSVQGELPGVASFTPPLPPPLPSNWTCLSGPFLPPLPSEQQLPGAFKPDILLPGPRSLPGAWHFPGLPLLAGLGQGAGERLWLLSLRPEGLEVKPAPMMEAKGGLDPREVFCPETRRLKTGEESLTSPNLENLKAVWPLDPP
# Assay: as above
# Conditions: 10 mM Tris-HCl pH 7.5, 50 mM NaCl, 1 mM DTT, 4% glycerol, room temperature, 30 min; GST-TFs on glutathione beads, 16-mer random dsDNA library, 0.1% …; high values mean tight binding; double strand, one strand shown; scale: fold enrichment (6-mer frequency, TF over GST control)
row,Sequence,binding signal
1,CGATAA,1.09
2,GTTCAT,1.16
3,CTGTAA,0.986
4,TTTGGC,1.23
5,GGCTCT,1.34
6,ACCTAA,1.18
7,ATAATT,1.4
8,AGATCC,1.13
9,TCTAAG,1.17
10,GTGCTT,1.14
11,AATGTC,1.22
12,TGGTAT,1.37
13,ATGTAA,1.26
14,ATGGCC,1.32
15,CACTTC,3.63
16,ACTCTA,1.39
17,TAATAA,1.24

# 4 records picked at random from those above:
row,Sequence,binding signal
5,GGCTCT,1.34
9,TCTAAG,1.17
1,CGATAA,1.09
12,TGGTAT,1.37

# Next part

row,Sequence,binding signal
1,GATGCC,1.39
2,CGATTT,1.17
3,TAATTT,1.48
4,TTGCTA,1.35
5,GATACG,1.1
6,CTCTAG,1.28
7,CCCGAC,1.41
8,TGCTCA,1.31
9,TTTGAG,0.971
10,ACATCC,2.46
11,GAACAT,1.01
12,TCACAG,1.13
13,ACTTAA,1.16
14,ATCGTC,1.09
15,CCTGGT,1.53
16,CTGAGC,1.14

# Source: PMC7862700
